The target of data set [1] is Phox2b (full-length, transfected) (UniProt O35690). The data set can be described thus: activity in cells. The settings on record: 1xII-CAT in HeLa; protein in cells; protein details: pRc/CMV; only the site is given.
Data set [2] has as its target Phox2a (full-length, transfected) (UniProt Q62066). The data set can be described thus: activity in cells. As to conditions: 1xII-CAT in HeLa; protein in cells; protein details: pRc/CMV; only the site is given.

Chains of the proteins cited; added tags and fusions are not shown.
UniProt O35690, whole entry: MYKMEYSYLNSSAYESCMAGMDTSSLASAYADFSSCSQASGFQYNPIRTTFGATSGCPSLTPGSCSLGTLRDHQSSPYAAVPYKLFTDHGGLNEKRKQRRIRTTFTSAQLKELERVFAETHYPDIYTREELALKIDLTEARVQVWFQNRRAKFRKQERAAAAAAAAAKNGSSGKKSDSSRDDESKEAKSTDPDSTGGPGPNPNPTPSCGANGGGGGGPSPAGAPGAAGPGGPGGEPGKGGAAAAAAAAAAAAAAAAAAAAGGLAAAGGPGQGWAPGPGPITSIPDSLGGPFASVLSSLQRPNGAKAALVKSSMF
UniProt Q62066, whole entry: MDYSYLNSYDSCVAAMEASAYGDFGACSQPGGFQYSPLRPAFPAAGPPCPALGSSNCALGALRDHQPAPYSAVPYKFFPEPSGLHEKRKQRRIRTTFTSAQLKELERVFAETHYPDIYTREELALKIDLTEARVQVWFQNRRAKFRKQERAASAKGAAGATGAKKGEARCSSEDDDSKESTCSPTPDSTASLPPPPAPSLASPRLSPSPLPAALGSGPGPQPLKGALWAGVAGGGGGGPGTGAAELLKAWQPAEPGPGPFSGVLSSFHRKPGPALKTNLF

“CCGCTAGACAAATGTGATTACC (double strand) [PBS2 (domain II)]”: the “activity on this sequence” value in data set [1] and in data set [2] was “active” in each case.

The values above are taken from patent US20040024191.
